Results: patent publication US20020132977A1
No constants are given. Whether binding was seen depends on the method and setting. Some results given as binding are weak or reduced against the parent protein; the word gives no strength. Sequences can lack the tags named with a protein.

Assays:
[1] = target: p53 (p73βaa345-390) (human) (UniProt O15350); assay: anti-Flag IP, anti-GFP Western
Flag-tagged p73β = target: T1, Flag-tagged p73β (UniProt O15350); assay: anti-Flag IP, anti-GFP Western
T1 sequence (looked up): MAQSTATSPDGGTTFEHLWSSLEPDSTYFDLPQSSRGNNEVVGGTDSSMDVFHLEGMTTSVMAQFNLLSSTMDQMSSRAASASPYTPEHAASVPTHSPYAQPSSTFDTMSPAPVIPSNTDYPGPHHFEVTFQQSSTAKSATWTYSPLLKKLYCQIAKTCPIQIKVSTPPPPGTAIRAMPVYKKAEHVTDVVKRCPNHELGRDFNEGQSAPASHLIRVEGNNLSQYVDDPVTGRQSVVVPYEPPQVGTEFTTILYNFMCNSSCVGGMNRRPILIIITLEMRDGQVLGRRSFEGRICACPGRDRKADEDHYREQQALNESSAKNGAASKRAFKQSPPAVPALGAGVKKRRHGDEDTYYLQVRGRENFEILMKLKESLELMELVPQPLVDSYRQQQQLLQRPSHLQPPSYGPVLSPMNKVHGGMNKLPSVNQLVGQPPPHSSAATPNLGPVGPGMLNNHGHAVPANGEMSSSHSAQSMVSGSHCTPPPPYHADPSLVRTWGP

binding [1]: binds | binding (Flag-tagged p73β): binds
B1: GFP-tagged p73 (protein, not shown: large carriers)
chain: MAQSTATSPDGGTTFEHLWSSLEPDSTYFDLPQSSRGNNEVVGGTDSSMDVFHLEGMTTSVMAQFNLLSSTMDQMSSRAASASPYTPEHAASVPTHSPYAQPSSTFDTMSPAPVIPSNTDYPGPHHFEVTFQQSSTAKSATWTYSPLLKKLYCQIAKTCPIQIKVSTPPPPGTAIRAMPVYKKAEHVTDVVKRCPNHELGRDFNEGQSAPASHLIRVEGNNLSQYVDDPVTGRQSVVVPYEPPQVGTEFTTILYNFMCNSSCVGGMNRRPILIIITLEMRDGQVLGRRSFEGRICACPGRDRKADEDHYREQQALNESSAKNGAASKRAFKQSPPAVPALGAGVKKRRHGDEDTYYLQVRGRENFEILMKLKESLELMELVPQPLVDSYRQQQQLLQRPSHLQPPSYGPVLSPMNKVHGGMNKLPSVNQLVGQPPPHSSAATPNLGPVGPGMLNNHGHAVPANGEMSSSHSAQSMVSGSHCTPPPPYHADPSLVSFLTGLGCPNCIEYFTSQGLQSIYHLQNLTIEDLGALKIPEQYRMTIWRGLQDLKQGHDYSTAQQLLRSSNAATISIGGSGELQRQRVMEAVHFRVRHTITIPNRGGPGGGPDEWADFGFDLPDCKARKQPIKEEFTEAEIH
